Measurements from “University of Dundee, Small-Polar-MMV Screening Library” (2021), ChEMBL document CHEMBL3988442.

Results are given as percent effect.
The controls that fix the scale are not given in the record; negative values are as filed.
Compounds were drawn at random from those tested, without regard to their results.

A: 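Phenotypic screen: M. tuberculosis growth, glucose 7H9 medium, 3 days; the read-out is not stated. Tested at 500 µM. The record gives no direction; compounds that gave an IC50 in retests scored well above the rest, so higher reads as more growth inhibition. Size under these conditions: about 18,000 compounds, about 1,400 of them at 50% or above in at least one test.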
B: 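Growth of Mycobacterium tuberculosis over 4 days (cholesterol / DPPC medium with tyloxapol); the read-out is not stated. Tested at 500 µM. Higher reads as more growth inhibition (inferred: compounds with an IC50 in retests scored well above the rest). Of about 18,000 compounds tested this way, about 900 (5%) reached 50% or more in at least one test.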

structure	A	B
Cc1cc(C(=O)NCc2cccnc2OC(C)C)on1	43.56%	36.53%
Cc1cc(C(=O)NCCNC(=O)c2ccoc2)no1	15.02%	8.98%
CC(O)CCNC(=O)Nc1ccc(F)cc1F (stereo not drawn)	7.403%	-1.451%
c1cncc(N2CCC3(CCCN3)C2)c1 (stereo not drawn)	9.152%	-12.06%
Cc1ccc(S(=O)(=O)N2CCOc3ccncc32)cc1	56.84%	39.01%
OCCN(CCN1CCOCC1)Cc1ccncc1Cl	5.88%	6.516%
COc1ccccc1NC(=O)CNCC(C)C	19.56%	3.987%
CCN(CC)C(=O)Cn1nc(-c2ccccc2)oc1=O	8.047%	1.053%
CC(C)C(C)(C#N)NC(=O)CSCCS(C)(=O)=O (stereo not drawn)	7.569%	-3.87%
COc1cc(CCC(=O)Nc2cc[nH]n2)cc(OC)c1	29.09%	5.17%
C/C=C/c1ccc(OCCNC)c(OC)c1	5.108%	5.864%
CC(=O)Nc1cccn(CC(F)(F)F)c1=O	-12.54%	-18.77%
CCOc1ccc(Cn2nc(COC)oc2=O)nc1	66.01%	71.84%
Cc1n[nH]cc1CNCCCN1CCCCCC1=O	-1.852%	-9.541%
O=C(CN(CC1CCOC1)C1CC1)NC1CC1 (stereo not drawn)	0.002987%	-9.459%
CC[C@H]1COCCN1C(=O)c1c(F)cc(OC)cc1F	25.47%	40.54%
COc1ccc(NC(=O)CN)cc1Cl	21.09%	22.18%
CCn1cnnc1CNCc1c(C)nn(C)c1N(C)C	7.208%	4.348%
Cc1nocc1C(=O)N1C[C@@H](CO)[C@H](N(C)C)C1	4.197%	5.483%
CN(C)C(=O)c1cc(-c2ccncc2)on1	1.336%	-5.083%
O=C(NCCN1CCCCC1)NCC1CCS(=O)(=O)C1 (stereo not drawn)	12.26%	2.981%
CSCc1cccc(CNC(=O)c2cc[nH]n2)c1	71.8%	50.79%
Cn1cc(Br)c(=O)c(NC(=O)CCc2ccccn2)c1	-8.413%	-9.726%
CN(C)C(=O)N1CCN(C(=O)CN)CC1	-0.8953%	-2.707%
Cn1ccnc1C(N)c1ccccc1F (stereo not drawn)	5.255%	-13.5%
O=C(CCNC(=O)c1ccccc1F)Nc1nccs1	-15.58%	-14.26%
CCc1nn(C)c(CC)c1S(=O)(=O)N1CCC(N)C1 (stereo not drawn)	-12.55%	-12.68%
Cn1c(C(=O)OCCCC(N)=O)cc2ccccc21	-11.89%	-6.822%
Cc1nn(C)c(C)c1CCC(=O)Nc1cnccc1O	4.449%	1.65%
O=C(C1CCCNC1)N1CCCC1 (stereo not drawn)	-10.79%	-14.78%
COc1ccc(CN2CCOC(C(N)=O)C2)cn1 (stereo not drawn)	16.05%	-6.341%
COCc1nc(CCNC(=O)Cc2cccnc2)no1	3.242%	-13.08%
NC(=O)CSc1nnc(-c2ccco2)o1	3.765%	-19.61%
c1ccc2[nH]c(NCCOCC3CCCO3)nc2c1 (stereo not drawn)	21.5%	12.43%
CCS(=O)(=O)N(C)CCCNc1ccc(Cl)cn1	80.45%	75.35%
COc1c(C)cnc(CNC(=O)NC2CC2)c1C	-11.37%	-15.09%
CNCc1ccc(C)cn1	1.176%	6.153%
Cc1cncc(NS(=O)(=O)CCc2ccccc2)c1	59.72%	37.23%
CC(Nc1cccc2c1CCCC2)C(=O)NC(N)=O (stereo not drawn)	48.73%	34.34%
CCS(=O)(=O)CCN(C)CCOc1cccc(C#N)c1	36.98%	36.34%
Cc1ccc(S(=O)(=O)CCCS(=O)(=O)N(C)C)c(C)c1	45.61%	18.78%
COc1ccc(CNCCSc2nnnn2C)cc1	23.3%	31.98%
COc1ccc(NC(=O)N2CCN3CCC2CC3)cn1	-161.4%	-209.8%
O=C(COc1ccc(F)cc1)OCCN1CCOCC1	13.46%	2.742%
O=C(Nc1nnc(-c2cccs2)s1)NC1CCCNC1 (stereo not drawn)	63.52%	56.09%
CCOc1ccc(S(=O)(=O)Nc2cccnc2)cc1	-11.68%	-20.36%
Cc1cc(C)n(CC(=O)N2CC(C)OCC2(C)C)n1 (stereo not drawn)	-2.895%	2.677%
CCC1CN(CCN2CCCC2=O)CCN1CCOC (stereo not drawn)	-13.87%	-7.064%
Cc1nsc(NCc2cncs2)n1	8.606%	4.776%
NS(=O)(=O)CC1Cc2ccccc2C1	23.33%	12.23%
CC(C)N1CCC(C(=O)NCCn2cccc2)CC1	-2.058%	3.278%
O=C1CCCN1CCC1CCNCC1	9.971%	8.979%
CCN1CCN(c2ccc(F)cc2C(C)N)CC1 (stereo not drawn)	22.04%	18.77%
CC(C)[C@H](N)C(=O)N1CCC(CCCN(C)C)CC1	14.71%	4.02%
NCc1cc2ccccc2[nH]c1=O	24.14%	6.249%
CCCN1CCC(NC(=O)c2c(C)nn(C)c2C)CC1	-1.302%	6.916%
c1ccc(CN2CCSCC2)nc1	10.04%	6.944%
CO[C@@H]1CN[C@@H](c2nc(C)no2)C1	-7.973%	-6.301%
CN(Cc1nnc2n1CCC2)C(=O)c1ccccc1	0.5596%	-9.488%
CCOc1cccc2c1CCC2N (stereo not drawn)	37.44%	18.92%
c1cnc(N2CCCC2)c(OC2CCNC2)c1 (stereo not drawn)	-23.84%	-43.08%
CCS(=O)(=O)NCCNC1(C(=O)OC)CCCC1	-2.968%	-7.542%
CCC(C(=O)NCc1cn2c(n1)SCC2)n1cccn1 (stereo not drawn)	17.19%	-3.042%
CN1CCCN(Cc2ccc3c(c2)OCO3)CC1	1.122%	0.6629%
CC(=O)c1c(C)cccc1NCC(=O)N(C)C	45.77%	15.11%
N#CCCN1CCN(Cc2ccc(C#N)cc2)CC1	20.02%	20.65%
CC(C)C(NC(=O)c1cnccn1)c1nccn1C (stereo not drawn)	-13.36%	-18.76%
Cc1noc(C)c1CNC(=O)C1CCS(=O)(=O)C1 (stereo not drawn)	5.588%	-0.4746%
Cc1noc(C(C)N2CCNCC2)n1 (stereo not drawn)	-7.502%	-9.348%

Once more, the final 5:

structure	A	B
CC(=O)c1c(C)cccc1NCC(=O)N(C)C	45.77%	15.11%
N#CCCN1CCN(Cc2ccc(C#N)cc2)CC1	20.02%	20.65%
CC(C)C(NC(=O)c1cnccn1)c1nccn1C (stereo not drawn)	-13.36%	-18.76%
Cc1noc(C)c1CNC(=O)C1CCS(=O)(=O)C1 (stereo not drawn)	5.588%	-0.4746%
Cc1noc(C(C)N2CCNCC2)n1 (stereo not drawn)	-7.502%	-9.348%